Laboratory results published in PubChem BioAssay AID493014 (National Center for Advancing Translational Sciences (NCATS), 2011).
In all, about 340,000 compounds went through this assay and about 170 (0.05%) were called active. The shares of active, inactive and inconclusive entries below differ from those in the screen. Calls come from the whole dose curve; as a rule, active = well fitted inhibition curve with a large enough effect in the signal ratio, with a control signal flat (not every such curve was filed as active); inconclusive = small, poorly fitted or top-dose-only effect, or effect the other way, or a change in a side signal; inactive = flat fitted curve, though single readings scatter; the % refers to the signal ratio. Potencies of inconclusive entries are doubtful fits and often do not repeat.
Potency is the fitted concentration of half-maximal effect.

Experiment: qHTS Assay to Find Inhibitors of Chronic Active B-Cell Receptor Signaling;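 for activity change, negative = inhibition: plate controls were basal doxycycline-induced cells for no effect and cells given 10 µM MG132 for full effect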
Conditions: ABC-DLBCL IkBa-CBG/CBR reporter, luminescence ratio (green luciferase fused to IkBa over red control in TMD8 lymphoma cells), 4 h; activity change, negative = inhibition: at 46.1 µM (top of the series) unless noted
Procedure, shortened: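 TMD8 human ABC-DLBCL cells with doxycycline-inducible IκBα–green luciferase fusion and unfused red luciferase, in 0.5% FBS medium; compounds up to 46 uM, 4 h at 37C. Green/red luminescence ratio, filter-overlap corrected, fitted to concentration-response curves.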
In the case of `CC(C)OC(=O)CSc1nnc(COc2ccc([N+](=O)[O-])cc2)n1C`, the activity change, negative = inhibition is reported as “inactive”.
With `c1coc(-c2nnc(-c3ccco3)nn2)c1` the Potency was inconclusive: 22.4 µM [falling, partial curve].
In the case of `CC(C)NC(=S)NC(=O)/C=C/c1ccc(F)cc1`, the activity change, negative = inhibition is reported as “inactive”.
With `CC1=NNC(=O)/C1=C\c1cn(-c2ccccc2)nc1-c1cccs1` the activity change, negative = inhibition was inconclusive: 16.3%.
For `O=C(NCCOC(=O)c1ccc(Cl)c(S(=O)(=O)N2CCCCC2)c1)c1ccncc1`, the activity change, negative = inhibition was inconclusive: -2.87%.
In the case of `Cc1nc2ccc(NC(=O)c3cc(Cl)ccn3)cc2s1`, the Potency is reported as inconclusive: 17.8 µM [falling, single point].
With `Cc1ccc(C)c(S(=O)(=O)Nc2ccccc2C(=O)Nc2ccccc2N2CCOCC2)c1` the activity change, negative = inhibition was inconclusive: 2.33%.
In the case of `Cc1ccc(SCC(=O)Nc2cc(S(=O)(=O)N3CCCCC3)ccc2C)cc1`, the activity change, negative = inhibition is reported as inconclusive: -4.62%.
For `Cc1ccc2c(=O)cc(C(F)F)oc2c1`, the activity change, negative = inhibition was inconclusive: -0.625%.
With `COc1ccccc1/C=N\NC(=O)c1c(C)nc2ccc(Cl)cn12` the activity change, negative = inhibition was “inactive”.
For `CCOC(=O)Nc1ccc2c(CN3C(=O)NC4(CCCC4)C3=O)cc(=O)oc2c1`, the activity change, negative = inhibition was inconclusive: -7.04%.
For `CC(C)CNC(=O)c1ccccc1NC(=O)CN(c1ccc2c(c1)OCCO2)S(C)(=O)=O`, the activity change, negative = inhibition was inconclusive: -4.97%.
For `CC(=O)C1=NN(c2ccccc2)C2(S1)S/C(=C\c1ccccc1)C(=O)N2c1ccccc1` (stereo not drawn), the activity change, negative = inhibition was inconclusive: 7.73%.
For `CCCCc1ccc(NC(=O)CN(C)CC(=O)Nc2ccccc2Cl)cc1`, the activity change, negative = inhibition was “inactive”.
With `O=C(N/N=C/c1c[nH]c2ccccc12)c1cc(Cl)ccc1O` the Potency was inconclusive: 7.94 µM [rising, partial curve, poor fit].
With `Cc1ccc(-n2nnnc2SCCNS(=O)(=O)c2ccccc2)cc1C` the activity change, negative = inhibition was “inactive”.
In the case of `COc1cc2[nH]c(C(=O)N(C)Cc3ccccc3)cc2c(OC)c1OC`, the activity change, negative = inhibition is reported as inconclusive: -13.9%.
For `FC(F)Oc1ccccc1/C=N/n1cnc2ccccc21`, the activity change, negative = inhibition was inconclusive: 1.22%.
For `COc1cc(NC(=O)c2ccc(-c3ccc(Br)cc3)o2)ccc1NC(=O)C(C)C`, the Potency was inconclusive: 1.46 µM [rising, full curve, poor fit].
In the case of `COc1cc(/C=N/NC(=O)c2ccc3c(c2)OCCO3)cc(Br)c1O`, the activity change, negative = inhibition is reported as inconclusive: -15.5%.
With `Cc1ccc(CNC(=O)C2CC(c3cccc([N+](=O)[O-])c3)=NO2)o1` (stereo not drawn) the Potency was inconclusive: 3.16 µM [falling, full curve].
With `CCOC(=O)N1CCN(C(=O)c2cc3c(=O)n(C)c4ccccc4c3n2C)CC1` the Potency was inconclusive: 29.1 µM [falling, single point].
In the case of `Cn1c(=O)c2c(nc3n2CC(O)CN3c2ccc(O)cc2)n(C)c1=O` (stereo not drawn), the activity change, negative = inhibition is reported as “inactive”.
For `CN(C)c1ccc(NC(=O)C2(c3cccs3)CCOCC2)cc1`, the activity change, negative = inhibition was inconclusive: 15.6%.
In the case of `COc1ccc(C2C(C#N)=C(N)Oc3c2c(-c2ccccc2)nn3-c2ccccc2)c(OC)c1OC` (stereo not drawn), the activity change, negative = inhibition is reported as inconclusive: -7.01%.
With `O=C(Nc1ccccc1N1CCCCC1)c1ccc([N+](=O)[O-])o1` the activity change, negative = inhibition was “inactive”.
For `O=C(CN1CCOCC1)Nc1ccccc1`, the activity change, negative = inhibition was inconclusive: -2.64%.
For `COc1cccc(-c2c(-c3cc(OC)cc(OC)c3)n(C)c3ccc(Br)cc23)c1`, the activity change, negative = inhibition was inconclusive: 6.3%.
For `CC1=C(C(=O)OCC(C)C)C(c2ccccc2Cl)NC(=O)N1C` (stereo not drawn), the activity change, negative = inhibition was inconclusive: -8.73%.
In the case of `CC(=O)c1cccc(OCc2cc(C(=O)N3CCSCC3)no2)c1`, the activity change, negative = inhibition is reported as inconclusive: -1.68%.
In the case of `COc1cc(-c2ccc3c(=O)c4ccccc4sc3c2)cc(OC)c1OC`, the activity change, negative = inhibition is reported as “inactive”.
For `CCN1CCCC1CN(Cc1cc2ccc(C)cc2[nH]c1=O)C(=S)Nc1ccc(F)cc1` (stereo not drawn), the Potency was inconclusive: 25.1 µM [falling, single point].
With `Cc1ccc(/C=C2\SC(=S)N(CCC(=O)NNC(=O)c3cccc(O)c3)C2=O)cc1` the Potency was inconclusive: 22.4 µM [falling, partial curve].
With `COc1cc2c(cc1OC)C(c1ccc(-c3ccccc3Cl)o1)=NCC2` the Potency was inconclusive: 29.1 µM [falling, single point].
In the case of `OCC1(Cc2ccccc2)CCN(Cc2cnc(-c3cccc4ccccc34)nc2)CC1`, the activity change, negative = inhibition is reported as inconclusive: -3.28%.
In the case of `Cc1ccccc1-c1cc(C(=O)n2cccn2)c2cc(Cl)ccc2n1`, the Potency is reported as inconclusive: 7.94 µM [falling, partial curve, poor fit].
For `Cc1ccc(N=CC=C2OC(C)(C)C(C)(C)O2)c(C)c1`, the activity change, negative = inhibition was “inactive”.
With `Cc1ccc(N(CC(=O)N2CCOCC2)S(C)(=O)=O)cc1C` the activity change, negative = inhibition was inconclusive: -8.14%.
In the case of `Cc1sc2c(c1C)C(O)=C(C(=O)Nc1ccccc1)S(=O)(=O)N2C`, the activity change, negative = inhibition is reported as inconclusive: 419%.
With `COC(=O)c1c(NS(=O)(=O)Cc2ccccc2)sc2c1CCCC2` the activity change, negative = inhibition was “inactive”.
In the case of `CCOc1ccc(CCNC(=O)CCSCc2cccc(Cl)c2)cc1OCC`, the activity change, negative = inhibition is reported as “inactive”.
In the case of `CCOC(=O)N1CCN(c2ccc(O)cc2)CC1`, the Potency is reported as inconclusive: 3.66 µM [falling, partial curve, poor fit].
In the case of `COc1ccc(CN=CC2=C(O)CNC2=O)cc1`, the activity change, negative = inhibition is reported as inconclusive: -0.0041%.
In the case of `COc1ccc(Nc2nc(C)c(-c3ccccc3)s2)cc1`, the activity change, negative = inhibition is reported as inconclusive: -8.74%.
In the case of `CCc1nc(NC(C)(C)C)c2cnn(-c3ccccc3)c2n1`, the Potency is reported as inconclusive: 7.94 µM [rising, partial curve].
With `CS(=O)(=O)N1CC(C(=O)NN)Oc2ccc(Cl)cc21` (stereo not drawn) the activity change, negative = inhibition was “inactive”.
In the case of `CCOC(=O)C1=C(C)NC(C)=C(C(=O)OCC)C1C(=O)OCC(=O)N1CCc2ccccc21`, the Potency is reported as inconclusive: 31.6 µM [falling, single point].
For `COc1ccccc1C1=NN(C(=O)c2ccccc2)C(c2ccc(Br)cc2)C1` (stereo not drawn), the activity change, negative = inhibition was inconclusive: 9.37%.
With `O=C(CNC(=O)c1ccncc1)N/N=C/c1cc(Br)ccc1OCc1ccccc1` the activity change, negative = inhibition was inconclusive: 1.68%.
In the case of `COc1ccc(NC(=O)CN(C)C(=O)/C=C/c2cn(Cc3ccccc3)nc2-c2cccnc2)cc1`, the activity change, negative = inhibition is reported as inconclusive: -8.24%.
In the case of `COC(=O)c1ccc(COC(=O)c2ccc(N(C)C)cc2)cc1`, the activity change, negative = inhibition is reported as “inactive”.
For `Cc1ccccc1N=Nc1ccc(O)c2ncccc12`, the activity change, negative = inhibition was inconclusive: 2.28%.
With `CN(/N=C/c1ccc(O)cc1O)c1ncc(C(F)(F)F)cc1Cl` the activity change, negative = inhibition was inconclusive: 4.59%.
With `COc1cc(/C=C2/C(=N)N3C=CSC3=NC2=O)ccc1OCCCOc1ccccc1C` the Potency was inconclusive: 14.1 µM [rising, partial curve, poor fit].
With `CC1CCCN(CCCNC(=O)c2nn(C)c3c2CSc2ccccc2-3)C1` (stereo not drawn) the activity change, negative = inhibition was “inactive”.
With `CCc1ccc(OC(=O)c2sc3ncn(Cc4cccc(F)c4)c(=O)c3c2C)cc1` the activity change, negative = inhibition was “inactive”.
With `O=C(/C=C/Nc1ccccc1F)c1cccs1` the Potency was inconclusive: 2.06 µM [falling, partial curve, poor fit].
In the case of `Cc1cc(=O)n2[nH]c(NCc3ccccc3F)nc2n1`, the activity change, negative = inhibition is reported as inconclusive: -14%.
In the case of `COc1ccc(N2CCN(Cc3cc(=O)oc4cc(C)c(Cl)c(C)c34)CC2)cc1`, the activity change, negative = inhibition is reported as “inactive”.
In the case of `CC1CCN(C(=O)c2[nH]cnc2C(=O)N[C@@H](CCCCNC(=O)OC(C)(C)C)C(=O)OC(C)(C)C)CC1`, the activity change, negative = inhibition is reported as “inactive”.
In the case of `Cc1ccc(C)c2[nH]c(=O)c(CN(CC3CCCO3)C(=O)NC3CCCCC3)cc12` (stereo not drawn), the activity change, negative = inhibition is reported as inconclusive: -9.34%.
With `COc1ccc(OC)c(NC(=O)c2cnc3n(c2=O)CCS3)c1` the activity change, negative = inhibition was inconclusive: 11.2%.
With `Cc1nc(-c2ccccc2)sc1C(=O)Nc1ccccc1F` the activity change, negative = inhibition was inconclusive: 7.51%.
For `COc1ccc(-c2nnc(OCc3nc4ccccc4n3C)c3ccccc23)cc1`, the Potency was inconclusive: 20.6 µM [falling, partial curve].
With `Cc1ccc2nc(N3CCN(C(=O)CCCC(=O)O)CC3)nc(-c3ccccc3)c2c1` the activity change, negative = inhibition was “inactive”.
With `COc1cccc(N=Cc2nc(-c3ccccc3)oc2OC(C)=O)c1` the activity change, negative = inhibition was inconclusive: -9.77%.
With `COc1ccc(NC(=O)Nc2ccc(N(C)C)cc2)cc1` the activity change, negative = inhibition was inconclusive: 8.52%.
In the case of `O=C(Nc1ccc2nc3n(c(=O)c2c1)CCCC3)c1ccccc1[N+](=O)[O-]`, the activity change, negative = inhibition is reported as inconclusive: 10.1%.
In the case of `O=C(CSc1nnc(-c2cccc(Cl)c2)o1)Nc1ccc2c(c1)OCCO2`, the activity change, negative = inhibition is reported as “inactive”.
In the case of `CN(C)/C=C/C(=O)c1ccn(S(=O)(=O)c2ccccc2)c1`, the activity change, negative = inhibition is reported as inconclusive: 2.8%.
For `O=C(CCc1nc2cccnc2n1Cc1ccccc1)NCCc1ccc(Cl)cc1`, the activity change, negative = inhibition was inconclusive: -7.73%.
For `COc1cc2nc(SCc3ccc(C(F)(F)F)cc3)n(Cc3cccs3)c(=N)c2cc1OC`, the activity change, negative = inhibition was inconclusive: 7.88%.
For `CC(=O)Nc1ccc(Cl)cc1C(=O)O`, the activity change, negative = inhibition was inconclusive: 2.46%.
In the case of `COc1ccc(/C=N/Nc2nc(C(=O)O)cs2)cc1`, the Potency is reported as inconclusive: 35.5 µM [falling, single point].
With `COc1ccc(CC(=O)Nc2ccc3nc(C)sc3c2)cc1OC` the activity change, negative = inhibition was inconclusive: -7.79%.
With `O=C(Nc1cccc(F)c1)c1ccc(-c2ccccc2Cl)o1` the Potency was inconclusive: 18.4 µM [falling, single point].
For `CCOC(=O)C1=CN(Cc2ccco2)S(=O)(=O)N(C)C1c1ccc(C(F)(F)F)cc1` (stereo not drawn), the activity change, negative = inhibition was inconclusive: 0.615%.
For `COC(=O)c1cc(COc2ccc3ccc(=O)oc3c2)c(C)o1`, the activity change, negative = inhibition was “inactive”.
For `CCCCSC(=S)NC1CCS(=O)(=O)C1` (stereo not drawn), the activity change, negative = inhibition was inconclusive: -15.9%.
For `CC1CCC(C(C)C)C(OC(=O)COC(=O)c2cc(O)ccc2N)C1` (stereo not drawn), the activity change, negative = inhibition was “inactive”.
In the case of `O=C1c2ccccc2NC(c2ccccc2Cl)N1N=C1CCCCCC1` (stereo not drawn), the Potency is reported as inconclusive: 0.651 µM [falling, partial curve].
In the case of `O=C(NCCNC(=O)c1cnccn1)c1ccc(Cl)cc1`, the activity change, negative = inhibition is reported as inconclusive: -25%.
With `COc1ccc(-c2ccc(/C=C3/C(=N)N4C=CSC4=NC3=O)o2)c([N+](=O)[O-])c1` the Potency was inconclusive: 5.8 µM [rising, partial curve, poor fit].
